For 1 molecule, binding results are on record in article PMC11213338.

No constants are given. Whether binding was seen depends on the method and setting. Binding can be weak; no strength is given. Sequences can lack the tags named with a protein.

Assay [1] deals with GST-γb (barley stripe mosaic virus (ND18 strain)). As to the kind of experiment: pull-down; GST pull-down: purified GST-tag protein with His-tag protein in 50 mM Tris-HCl pH 6.8, 500 mM NaCl, 1.5% glycerol, 0.6% Triton-X 100, 0.1% Tween 20, 3 h at 4°C; with or without 10 μg RNaseA, Zn^2+ 2-200 μM, 20 μM other divalent cations, or EDTA (200 μM in Fig 4D and 4E); blots with anti-GST or anti-His; both purified.

Assay [2] deals with GST-γb_(1-85) (barley stripe mosaic virus (ND18 strain)). The assay is described as above.

B1: CP-His (protein, UniProt P04866 1-198)
chain: MPNVSLTAKGGGHYIEDQWDTQVVEAGVFDDWWVHVEAWNKFLDNLRGINFSVASSRSQVAEYLAALDRDLPADVDRRFAGARGQIGSPNYLPAPKFFRLDKRTIAELTRLSRLTDQPHNNRDIELNRAKRATTNPSPPAQAPSENLTLRDVQPLKDSALHYQYVLIDLQSARLPVYTRKTFERELALEWIIPDAEEA
As for B1, the binding entry in assay [1] and in assay [2] was “binds” each time.
